In the supplement of paper PMC3334620:
Whole data set: some 33,000 sequences, median “E-score (-0.5 to 0.5)” near -0.0014, cut for the highest 2% near 0.25. This is one part of the list.

Target: T1, Cad1 (UniProt P24813)
T1 sequence: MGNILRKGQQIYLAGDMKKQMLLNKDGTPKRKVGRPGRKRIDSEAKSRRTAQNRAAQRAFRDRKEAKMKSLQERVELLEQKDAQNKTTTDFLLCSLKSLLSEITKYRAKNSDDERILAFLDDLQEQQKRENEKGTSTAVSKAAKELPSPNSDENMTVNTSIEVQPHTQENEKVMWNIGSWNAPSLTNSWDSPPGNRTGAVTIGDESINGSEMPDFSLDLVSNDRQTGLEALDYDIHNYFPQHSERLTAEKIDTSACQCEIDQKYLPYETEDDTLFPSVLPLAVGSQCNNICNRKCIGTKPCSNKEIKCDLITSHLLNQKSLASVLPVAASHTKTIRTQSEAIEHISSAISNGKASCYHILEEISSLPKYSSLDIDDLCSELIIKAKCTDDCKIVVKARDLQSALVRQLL
Assay: PBM E-score (8-mer binding enrichment) (E-score (-0.5 to 0.5)); higher = stronger / more preferred TF binding
Details: protein concentration: 100 nM; construct: GST-full length
Experimental: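 Universal 'all 10-mer' protein binding microarrays (Agilent AMADID 015681) probed with GST-tagged S. cerevisiae TFs (full-length or DBD) made by in vitro transcription/translation (PURExpress), about 100-200 nM. Bound TF was detected with fluorescent anti-GST. Each ungapped 8-mer (which stands for itself and its reverse complement) is scored by the PBM enrichment score (E-score), a modified Wilcoxon-Mann-Whitney statistic from -0.5 to +0.5, computed with the Universal PBM Analysis Suite. Scale: above 0.35 generally sequence-specific binding.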

Sequence	PBM E-score
ACATATAC	0.0911
ACTGGGAT	-0.0364
AGGGATAG	-0.164
AGATCGGC	0.0265
CTAGTTCA	-0.00071
ATTTAGAC	0.0309
GCGCGTAA	0.293
AGTCACAC	-0.0012
TACTGATA	0.209
AGATGTAG	-0.151
CTTTTTGC	0.145
GCAGCGTA	-0.18
AAAGGCCT	-0.043
AAAGAACC	0.0643
CTGACCGA	-0.03
GCTCTCCA	-0.241
AACTTTCA	0.0704
AGAAAGAA	0.0147
GCTGCTGA	0.178
AGGTGCGA	-0.0943
AACCCCCG	-0.392
AACCCCAG	-0.243
AACTGCGA	-0.0339
ATTTTTCC	0.0266
CTGGAAGA	0.0677

Sequence	PBM E-score
CCAACGCC	-0.0448
ATTGCAAC	-0.0158
AAACCGGG	-0.0627
TAGATAGA	0.0637
TCATTCGA	0.144
CAAGCTGG	-0.192
GCGGGAAC	-0.0403
AACCTCCA	-0.336
GACTGCGA	-0.0379
GATGGTGA	-0.037
CCCACCAC	-0.0583
ATCTACCA	0.165
ACCGCCTG	-0.142
GAGTGACA	0.0819
GAGGACTA	-0.214
CTAACGTC	0.149
CACGAACG	-0.0325
CGCTGGAG	-0.0413
ATGCCTAA	-0.098
AAGAAGCG	-0.184
CGATTCAC	-0.0442
AACTGGAC	-0.0124
ATACGCAA	0.119
ACTGGGGA	-0.315
AGTCTTGA	-0.0713

Sequence	PBM E-score
AGGACACG	-0.0325
AATTATCA	0.266
CCGGGCTC	-0.228
ACGCCAAG	-0.356
GAACGAGC	0.115
AGGGTCGC	-0.0644
AATAAGCA	0.343
AACGAAAA	-0.0169
AACGAGAA	0.0567
CTTACGTA	0.328
CTAACTCC	-0.111
TTATCGAA	0.155
ATCGTAGA	-0.1
TAGTCGGA	0.0309
ATAAGAAA	0.209
ACTAACCG	0.0149
ACCCGAGT	0.0829
TACCTACA	0.0916
AACTTTCC	-0.0412
ACTCGGGC	0.11
ATGATGTA	0.182
AGCACATA	0.088
ATTTCCCC	-0.0772
GATGCACA	-0.038
GTTGTCGA	0.00061

Sequence	PBM E-score
GGTATTTA	0.0493
AAAAGAAG	0.0683
ACGGACCG	-0.145
GAACTTGA	0.152
ATGCTTTC	0.0666
CTAACCGC	-0.194
CCGGAGAG	-0.126
AGGTGGTG	-0.0647
GATGATCC	-0.0883
CTATAGAA	-0.0852
CGTAGGAA	0.0214
ACAGCCGT	-0.0158
AGACCTGG	-0.0269
TCATTAGA	0.0948
TCGCGCCA	-0.0488
ATTACTAC	0.0954
ATTAGCAG	0.0216
AGTTTCGA	-0.0561
CCATTGGC	-0.116
CGGCTCGA	0.198
ATGGATGG	-0.125
TCTAGTAA	0.169
CATCCTGG	0.155
ATTACCGG	0.0189
GCTAGCGA	-0.0733

Sequence	PBM E-score
ACGGAGAC	0.128
GATTAACA	0.163
ACAAAGCG	0.168
GGCGTATA	-0.292
ACCGAACC	-0.24
ATGCTAGA	0.0246
AAGTTATA	-0.0658
AAGGCTTG	-0.0928
CAACGTAC	-0.00969
CCCTCTTA	-0.0705
ACGCATGC	0.283
CGATAGCG	0.0571
CCAGCGGA	-0.25
ACTAAATA	0.233
AACATAGC	0.0961
GCATAGGC	-0.0745
CACATCCA	0.0306
AGGGGTAT	-0.247
CTATAATA	-0.101
CAAGCATA	-0.0515
GTCGCGGA	-0.035
GGATGTTA	-0.0262
CTCGGAAA	0.0234
CTTGCAGA	-0.0336
CCAAATAC	0.013

3 entries from above in another layout.
Sequence,PBM E-score
ACGGAGAC,0.128
CAACGTAC,-0.00969
CCAAATAC,0.013

Later entries

Sequence	PBM E-score
ACAACACT	0.189
ACGCCGTA	0.0685
AATTAGCT	0.0885
GCCCCCCC	-0.418
GATATTCA	0.0631
CTGCGGAA	-0.0934
AGCGCGAA	0.21
TATTGACA	-0.0118
ACGGATAT	0.254
CCAGGTCC	-0.273
TCCTTGAA	-0.0701
AGGGTTCG	-0.155
AACACCGT	-0.0022
GACCAGCA	-0.00129
CTCTCACC	0.015
ACAGCCCT	-0.124
CGACATCG	-0.0602
GTTATCTA	0.00907
ACCGGTTA	0.0602
ACATTAAG	0.151
CCCGCCGA	-0.0624
ATAATCGC	0.19
GTTGGGTA	0.0987
GGAGGCTA	-0.166
CCCAAGGC	-0.155

Some of the entries above in a different format.
Sequence | PBM E-score
AACACCGT | -0.0022
GACCAGCA | -0.00129
CTCTCACC | 0.015
ACAGCCCT | -0.124

(listing goes on)

Sequence	PBM E-score
GTGTTATA	0.141
CCAAAAAG	0.0477
AATTTTAC	0.282
ACCACGGG	-0.22
AGCTGGTG	0.0411
CATTTAGG	-0.158
CATGGCGG	-0.0395
ATACAGAA	0.177
CCGTGGCG	4e-05
CCTTAAAG	0.0425
GATTATGA	0.0726
CAAGTTCA	0.101
CGCGGCTC	0.0226
CCGTTCGA	0.118
CTGCAGAA	0.15
GCTTCGGA	0.0206
AACCACGA	0.00513
CAGATGCA	-0.138
CTTGCAAA	0.105
GAATTGTA	0.0474
AGAAACAA	0.0992
CATAACCC	-0.14
